Source: PMC9958362

By UniProt entry, the sequences of proteins in these tests, tags left out.
UniProt Q14244: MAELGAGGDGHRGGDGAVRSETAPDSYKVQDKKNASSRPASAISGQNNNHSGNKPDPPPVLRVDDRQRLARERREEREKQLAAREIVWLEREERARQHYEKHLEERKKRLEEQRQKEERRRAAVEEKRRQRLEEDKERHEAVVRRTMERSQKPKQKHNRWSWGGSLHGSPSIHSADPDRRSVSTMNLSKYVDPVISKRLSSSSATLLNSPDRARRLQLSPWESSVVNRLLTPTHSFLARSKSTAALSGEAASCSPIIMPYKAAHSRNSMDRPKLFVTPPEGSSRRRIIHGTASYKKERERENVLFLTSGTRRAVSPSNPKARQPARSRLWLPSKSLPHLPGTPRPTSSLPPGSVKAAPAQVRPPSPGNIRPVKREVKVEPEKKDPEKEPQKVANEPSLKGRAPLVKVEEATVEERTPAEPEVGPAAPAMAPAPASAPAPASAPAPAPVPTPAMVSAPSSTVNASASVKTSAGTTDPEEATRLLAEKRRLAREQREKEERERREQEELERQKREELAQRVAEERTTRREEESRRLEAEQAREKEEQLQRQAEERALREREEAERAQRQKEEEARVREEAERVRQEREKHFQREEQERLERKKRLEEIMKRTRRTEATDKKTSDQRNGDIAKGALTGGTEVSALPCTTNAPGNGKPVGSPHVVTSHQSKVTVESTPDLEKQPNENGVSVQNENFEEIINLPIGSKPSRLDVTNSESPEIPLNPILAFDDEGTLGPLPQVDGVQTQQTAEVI

Key:
[1] = molecular target: T1, pMLH1 peptide (phosphorylated MLH1 peptide, pSer477); assay: affinity purification with mass spectrometry; biotinylated 20 aa peptides (phosphorylated or non-phosphorylated) coupled to streptavidin beads; pull-down from HeLa nuclear extract; quantitative proteomics; only the target purified
T1 sequence (peptide, Biotin-eahx on the N-terminus; phosphoserine (pS, Ser477); C-terminal amide): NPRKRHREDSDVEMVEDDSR

[2] = molecular target: T2, pRAD50 peptide (phosphorylated RAD50 peptide, pThr690); assay: as above
T2 sequence (peptide, Biotin-eahx on the N-terminus; phosphothreonine (pT, Thr690); C-terminal amide): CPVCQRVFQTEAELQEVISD

binding [1]: binds
binding [2]: binds
Substance: MAP7 (endogenous, HeLa nuclear extract) (from UniProt Q14244 1-749)

Results are given in words; binding and its absence hold for the method and conditions named. In cells and extracts the contact can be indirect. These calls come from enrichment with a bait or labelling near it, and not all partners need be listed.
